Measurements: PubChem BioAssay AID330 (DTP/NCI, 2004)
The list does not hold the whole screen: it is rich in T/C values a quarter to a half above the control, in often repeated tests (any T/C) and in doses without a T/C. Further doses and runs are listed elsewhere. T/C: endpoint of the treated group in % of that of the vehicle group. Some doses have a count of surviving animals in place of a T/C: the source files T/C as zero there, which appears to mark a toxic dose or a test without result, not a measured value. Some doses without a T/C left all or most animals alive at the check, yet need not have been tolerated: the source hardly ever lists a survival T/C far under the control, and the zero likely stands for such cases as well. Survivors were counted at the toxicity check, usually on the fifth day, unless a day is given; later deaths do not show. Schedules are NCI's codes, read here as Q, the interval in days (D) or hours (H), X, the number of doses. Some entries hold several experiments; the results are listed from low to high. For survival time, the PubChem record calls one and a half times the control and up active, and a quarter to a half above the control has no call in these data; cut-offs in other NCI protocols can differ. Some T/C values are followed by the survivors on the day toxicity was checked, most often the fifth; where none is given, no animal had died by that day.

Test system: P388 leukemia ip, CD2F1 mice, survival T/C
Test: NCI In Vivo Anticancer Drug Screen. Data for tumor model P388 Leukemia (intraperitoneal) in CD2F1 (CDF1) mice
Details: T/C endpoint: median survival time, higher T/C = longer survival
[1] = dose: 100.0 mg/kg/injection, schedule: Q01DX009 (ip), vehicle: saline with Tween-80
[2] = dose: 400.0 mg/kg/injection, schedule: Q01DX009 (ip), vehicle: saline with Tween-80
[3] = dose: 40.0 mg/kg/injection, schedule: Q01DX005 (ip), vehicle: water
[4] = dose: 50.0 mg/kg/injection, schedule: Q01DX009 (ip), vehicle: saline with Tween-80
[5] = dose: 50.0 mg/kg/injection, schedule: Q01DX009 (ip), vehicle: saline
[6] = dose: 120.0 mg/kg/injection, schedule: Q01DX005 (ip), vehicle: saline with Tween-80
[7] = dose: 200.0 mg/kg/injection, schedule: Q01DX009 (ip), vehicle: saline with Tween-80

For `Cc1ccc(S(=O)(=O)OCCN(CCOS(=O)(=O)c2ccc(C)cc2)c2ccc(C=O)cc2)cc1`, the T/C (dose: 3.13 mg/kg/injection, schedule: Q04DX003 (ip), vehicle: saline with Tween-80) was 127 % of control, the T/C (dose: 6.25 mg/kg/injection, schedule: Q04DX003 (ip), vehicle: saline with Tween-80) was 131 % of control and the T/C (dose: 50.0 mg/kg/injection, schedule: Q04DX003 (ip), vehicle: saline with Tween-80) was 145 % of control. The T/C [1] was 136 % of control, the survivor count [2] was 6 of 6 and the T/C (dose: 400.0 mg/kg/injection, schedule: Q04DX003 (ip), vehicle: saline with Tween-80) was 125 % of control.

In the case of `Oc1c(Br)cc(Br)cc1/C=N/NC(=S)NC12CC3CC(CC(C3)C1)C2`, the survivor count (dose: 15.0 mg/kg/injection, schedule: Q01DX005 (ip), vehicle: Klucel (hydroxypropylcellulose) (HPC)) is reported as 6 of 6, the survivor count (dose: 30.0 mg/kg/injection, schedule: Q01DX005 (ip), vehicle: Klucel (hydroxypropylcellulose) (HPC)) is reported as 6 of 6 and the survivor count (dose: 60.0 mg/kg/injection, schedule: Q01DX005 (ip), vehicle: Klucel (hydroxypropylcellulose) (HPC)) is reported as 6 of 6.

With `C#CCN1CC(OC)Nc2c(O)cccc2C1=O` (stereo not drawn) (tested in a mixture with another compound) the T/C [3] was 128 % of control [4 of 5 alive] and the survivor count [3] was 3 of 5.

`S=c1cc(S)sc2c1c(=S)sc1nc3ccccn3c(=S)c12` was tested, and the survivor count (dose: 50.0 mg/kg/injection, schedule: Q01DX005 (ip), vehicle: Klucel (hydroxypropylcellulose) (HPC)) was 2 of 6 and the survivor count (dose: 200.0 mg/kg/injection, schedule: Q01DX005 (ip), vehicle: Klucel (hydroxypropylcellulose) (HPC)) was 2 of 6.

`COc1ccc(C(c2cc3c(cc2O)OCO3)N2CCCC2)cc1` (stereo not drawn) was tested, and the survivor count (dose: 240.0 mg/kg/injection, schedule: Q01DX005 (ip), vehicle: Klucel (hydroxypropylcellulose) (HPC)) was 4 of 6.

`COc1cccc2c1C(=O)c1c(O)c3c(c(O)c1C2=O)C[C@@](O)(C(=O)CO)C[C@@H]3OC1CC(N2CCOCC2C#N)C(O)C(C)O1` (stereo partly drawn) was tested, and the survivor count (dose: 1.25 mg/kg/injection, schedule: Q04DX003 (ip), vehicle: distilled water + Tween-80) was 0 of 6 on day 9, the survivor count (dose: 2.5 mg/kg/injection, schedule: Q04DX003 (ip), vehicle: distilled water + Tween-80) was 0 of 6 on day 9 and the survivor count (dose: 5.0 mg/kg/injection, schedule: Q04DX003 (ip), vehicle: distilled water + Tween-80) was 0 of 6 on day 9. The survivor count (dose: 10.0 mg/kg/injection, schedule: Q04DX003 (ip), vehicle: distilled water + Tween-80) was 0 of 6 on day 9, the survivor count (dose: 20.0 mg/kg/injection, schedule: Q04DX003 (ip), vehicle: distilled water + Tween-80) was 0 of 6 on day 9 and the T/C (dose: 4.69 micrograms/kg/injection, schedule: Q04DX003 (ip), vehicle: saline with Tween-80) was 139 % of control. For the same compound, the T/C (dose: 33.0 micrograms/kg/injection, schedule: Q04DX003 (iv), vehicle: saline + alcohol) was 137 % of control, the survivor count (dose: 37.5 micrograms/kg/injection, schedule: Q04DX003 (ip), vehicle: saline with Tween-80) was 3 of 6 and the survivor count (dose: 50.0 micrograms/kg/injection, schedule: Q04DX003 (iv), vehicle: saline + alcohol) was 10 of 10. The survivor count (dose: 75.0 micrograms/kg/injection, schedule: Q04DX003 (ip), vehicle: saline with Tween-80) was 1 of 6 and 2 of 6, the survivor count (dose: 75.0 micrograms/kg/injection, schedule: Q04DX003 (iv), vehicle: saline + alcohol) was 10 of 10 and the survivor count (dose: 150.0 micrograms/kg/injection, schedule: Q04DX003 (ip), vehicle: saline with Tween-80) was 0 of 6. For the same compound, the T/C (dose: 150.0 micrograms/kg/injection, schedule: Q04DX003 (ip), vehicle: water) was 131 % of control and the survivor count (dose: 600.0 micrograms/kg/injection, schedule: Q04DX003 (ip), vehicle: water) was 5 of 6 on day 9.

`C/C=C(/C)C(=O)O[C@H]1CC[C@@]2(C)[C@@H]3CC[C@H]4[C@]5(O)C[C@H](O)[C@@]6(O)[C@@H](CN7C[C@@H](C)CC[C@H]7[C@@]6(C)O)[C@]5(O)C[C@@]42O[C@@]13O` was tested, and the survivor count (dose: 3.12 mg/kg/injection, schedule: Q01DX009 (ip), vehicle: saline with Tween-80) was 3 of 6, the survivor count (dose: 12.5 mg/kg/injection, schedule: Q01DX009 (ip), vehicle: saline with Tween-80) was 0 of 6 and the survivor count (dose: 25.0 mg/kg/injection, schedule: Q01DX009 (ip), vehicle: saline with Tween-80) was 0 of 6. For the same compound, the survivor count [4] was 0 of 6.

With `C1CN1P1(N2CC2)=NP(N2CC2)(N2CC2)=NP(N2CC2)(N2CC2)=N1` the survivor count (dose: 35.0 mg/kg/injection, schedule: Q01DX009 (ip), vehicle: saline) was 6 of 6 and the survivor count [5] was 6 of 6.

`CC(=O)c1ccc(NN=NCCF)cc1` was tested, and the T/C (dose: 3.13 mg/kg/injection, schedule: Q01DX009 (ip), vehicle: water) was 125 % of control, the survivor count (dose: 12.5 mg/kg/injection, schedule: Q01DX009 (ip), vehicle: water) was 0 of 6 and the survivor count (dose: 25.0 mg/kg/injection, schedule: Q01DX009 (ip), vehicle: distilled water + Tween-80) was 0 of 5. For the same compound, the survivor count (dose: 25.0 mg/kg/injection, schedule: Q01DX009 (ip), vehicle: water) was 0 of 6, the survivor count (dose: 50.0 mg/kg/injection, schedule: Q01DX009 (ip), vehicle: distilled water + Tween-80) was 0 of 5 and the survivor count (dose: 100.0 mg/kg/injection, schedule: Q01DX009 (ip), vehicle: distilled water + Tween-80) was 0 of 5. For the same compound, the survivor count (dose: 200.0 mg/kg/injection, schedule: Q01DX009 (ip), vehicle: distilled water + Tween-80) was 0 of 5.

For `CN(C)/N=C/c1c[nH]c2ccccc12`, the survivor count (dose: 200.0 mg/kg/injection, schedule: Q01DX009 (ip), vehicle: Klucel (hydroxypropylcellulose) (HPC)) was 5 of 6 and the survivor count (dose: 400.0 mg/kg/injection, schedule: Q01DX009 (ip), vehicle: Klucel (hydroxypropylcellulose) (HPC)) was 0 of 6.

For `CCOC(=O)c1c(C(=O)OC)nc2n1-c1ccccc1OC2`, the survivor count [6] was 6 of 6.

For `O=Cc1c(-c2ccc(-c3ccccc3)cc2)nc2n1CCS2`, the survivor count (dose: 400.0 mg/kg/injection, schedule: Q01DX001 (ip), vehicle: Klucel (hydroxypropylcellulose) (HPC)) was 6 of 6.

In the case of `CCOC(=O)c1sc(N)c(C(=O)OCC)c1C`, the survivor count [7] is reported as 6 of 6 and the survivor count [2] is reported as 6 of 6.

`O=C(c1ccccc1Cl)n1c(Cl)c(/C=N\Nc2ccc([N+](=O)[O-])cc2)c2ccccc21` was tested, and the survivor count [4] was 1 of 6, the survivor count [1] was 0 of 6 and the survivor count [7] was 0 of 6.

With `C[N+](C)(C)CCBr` the survivor count [5] was 0 of 6 and the survivor count (dose: 50.0 mg/kg/injection, schedule: Q04DX003 (ip), vehicle: saline) was 5 of 6.

In the case of `Cc1nn(-c2ccc(Cl)cc2)c2nc(N)nc(N)c12`, the survivor count (dose: 25.0 mg/kg/injection, schedule: Q04DX002 (ip), vehicle: Klucel (hydroxypropylcellulose) (HPC)) is reported as 6 of 6.

For `CC(=O)C(C(C)=O)[N+](=O)[O-].CC(=O)C(C(C)=O)[N+](=O)[O-].[Cu]`, the survivor count (dose: 25.0 mg/kg/injection, schedule: Q01DX005 (ip), vehicle: saline with Tween-80) was 2 of 5, the survivor count (dose: 50.0 mg/kg/injection, schedule: Q01DX005 (ip), vehicle: saline with Tween-80) was 1 of 5 and the survivor count (dose: 100.0 mg/kg/injection, schedule: Q01DX005 (ip), vehicle: saline with Tween-80) was 0 of 5. The survivor count (dose: 200.0 mg/kg/injection, schedule: Q01DX005 (ip), vehicle: saline with Tween-80) was 0 of 5.

In the case of `CC(O)(c1ccccc1)C1C(c2ccccc2)N1Cc1ccccc1` (stereo not drawn), the survivor count (dose: 200.0 mg/kg/injection, schedule: Q04DX003 (ip), vehicle: saline sonified) is reported as 6 of 6.

With `COc1ccc(Cl)c2c(N=Nc3ccccc3[N+](=O)[O-])c(O)[nH]c12` the survivor count (dose: 60.0 mg/kg/injection, schedule: Q01DX005 (ip), vehicle: saline with Tween-80) was 6 of 6 and the survivor count [6] was 6 of 6.

`O=c1[nH]c(-c2ccncc2)nnc1-c1ccc(Cl)cc1` was tested, and the survivor count (dose: 400.0 mg/kg/injection, schedule: Q04DX002 (ip), vehicle: saline with Tween-80) was 2 of 6.

With `CC(=O)c1ccc(Nc2cc(C)nc(N)n2)cc1` the survivor count [6] was 0 of 6 and the survivor count (dose: 240.0 mg/kg/injection, schedule: Q01DX005 (ip), vehicle: saline with Tween-80) was 0 of 6.
